Experimental findings from article PMC10781680 are described below.

Chains of the proteins cited; added tags and fusions are not shown.
UniProt Q8IYM9: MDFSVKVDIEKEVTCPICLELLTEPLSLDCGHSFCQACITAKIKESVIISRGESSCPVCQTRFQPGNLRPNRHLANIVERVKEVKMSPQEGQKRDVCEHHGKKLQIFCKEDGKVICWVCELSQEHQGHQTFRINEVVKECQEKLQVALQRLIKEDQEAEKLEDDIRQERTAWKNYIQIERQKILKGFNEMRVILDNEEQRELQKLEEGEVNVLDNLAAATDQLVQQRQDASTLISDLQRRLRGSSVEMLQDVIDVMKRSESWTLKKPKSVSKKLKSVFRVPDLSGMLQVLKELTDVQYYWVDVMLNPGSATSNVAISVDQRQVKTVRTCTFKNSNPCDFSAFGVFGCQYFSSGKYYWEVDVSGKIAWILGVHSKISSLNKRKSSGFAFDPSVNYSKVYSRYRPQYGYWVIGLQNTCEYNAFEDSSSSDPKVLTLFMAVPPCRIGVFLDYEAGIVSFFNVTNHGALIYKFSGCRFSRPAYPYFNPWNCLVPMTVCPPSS

These are yes or no findings as the source states them, for the method shown. In cells and extracts the contact can be indirect. Some binding calls cover weakened binding; strength is not graded here. For part of these data: Where a sequence is shown, tags or fusion partners need not be part of it.

The target in assay [1] is T1, PHLPP2 (endogenous) (human (endogenous in HepG2)) (UniProt Q6ZVD8).
T1 sequence: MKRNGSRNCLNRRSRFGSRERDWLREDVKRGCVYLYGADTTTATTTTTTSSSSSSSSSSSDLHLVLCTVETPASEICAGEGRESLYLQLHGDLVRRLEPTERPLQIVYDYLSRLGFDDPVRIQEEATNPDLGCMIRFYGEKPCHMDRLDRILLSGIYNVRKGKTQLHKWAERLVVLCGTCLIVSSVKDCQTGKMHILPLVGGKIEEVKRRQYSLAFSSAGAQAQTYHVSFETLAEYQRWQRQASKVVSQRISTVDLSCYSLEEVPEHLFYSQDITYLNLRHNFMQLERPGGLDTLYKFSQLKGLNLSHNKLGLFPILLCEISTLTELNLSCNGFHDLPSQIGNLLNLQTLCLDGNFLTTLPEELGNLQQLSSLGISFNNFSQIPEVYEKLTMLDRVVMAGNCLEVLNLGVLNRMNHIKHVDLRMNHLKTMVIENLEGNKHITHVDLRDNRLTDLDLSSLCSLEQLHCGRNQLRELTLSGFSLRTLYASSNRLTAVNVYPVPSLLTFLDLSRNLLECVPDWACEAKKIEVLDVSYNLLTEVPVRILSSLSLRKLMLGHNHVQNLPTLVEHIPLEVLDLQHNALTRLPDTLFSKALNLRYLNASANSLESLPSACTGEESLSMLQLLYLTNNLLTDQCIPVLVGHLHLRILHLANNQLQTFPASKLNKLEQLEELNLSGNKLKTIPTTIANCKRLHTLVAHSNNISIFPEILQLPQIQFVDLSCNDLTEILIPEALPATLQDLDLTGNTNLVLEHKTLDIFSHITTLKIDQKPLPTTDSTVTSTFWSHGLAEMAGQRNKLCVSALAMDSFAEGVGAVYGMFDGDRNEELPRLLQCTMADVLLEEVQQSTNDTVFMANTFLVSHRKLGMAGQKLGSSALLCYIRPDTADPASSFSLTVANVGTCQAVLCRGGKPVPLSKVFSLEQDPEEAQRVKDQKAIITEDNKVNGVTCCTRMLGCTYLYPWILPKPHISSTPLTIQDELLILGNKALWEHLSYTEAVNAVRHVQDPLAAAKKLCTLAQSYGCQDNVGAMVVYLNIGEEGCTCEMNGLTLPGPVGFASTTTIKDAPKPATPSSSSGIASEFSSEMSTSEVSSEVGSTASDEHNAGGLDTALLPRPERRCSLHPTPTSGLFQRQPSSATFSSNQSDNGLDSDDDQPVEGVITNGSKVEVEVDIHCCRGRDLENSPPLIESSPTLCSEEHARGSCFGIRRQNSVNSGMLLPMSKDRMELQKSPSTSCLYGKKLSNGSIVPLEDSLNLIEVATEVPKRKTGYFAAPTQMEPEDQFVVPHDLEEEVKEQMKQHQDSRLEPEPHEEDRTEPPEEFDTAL
The assay is described as follows: proximity ligation; HepG2 cells on coverslips, transfected with TRIM22-Myc or treated with IR, 20 μM MG132 for 4 hrs, fixed and permeabilized; Duolink PLA kit with an antibody to each protein.

In assay [2] the target is T2, Flag-tagged PHLPP2 Wt (p3xFlag-PHLPP2 Wt) (UniProt Q6ZVD8).
T2 sequence: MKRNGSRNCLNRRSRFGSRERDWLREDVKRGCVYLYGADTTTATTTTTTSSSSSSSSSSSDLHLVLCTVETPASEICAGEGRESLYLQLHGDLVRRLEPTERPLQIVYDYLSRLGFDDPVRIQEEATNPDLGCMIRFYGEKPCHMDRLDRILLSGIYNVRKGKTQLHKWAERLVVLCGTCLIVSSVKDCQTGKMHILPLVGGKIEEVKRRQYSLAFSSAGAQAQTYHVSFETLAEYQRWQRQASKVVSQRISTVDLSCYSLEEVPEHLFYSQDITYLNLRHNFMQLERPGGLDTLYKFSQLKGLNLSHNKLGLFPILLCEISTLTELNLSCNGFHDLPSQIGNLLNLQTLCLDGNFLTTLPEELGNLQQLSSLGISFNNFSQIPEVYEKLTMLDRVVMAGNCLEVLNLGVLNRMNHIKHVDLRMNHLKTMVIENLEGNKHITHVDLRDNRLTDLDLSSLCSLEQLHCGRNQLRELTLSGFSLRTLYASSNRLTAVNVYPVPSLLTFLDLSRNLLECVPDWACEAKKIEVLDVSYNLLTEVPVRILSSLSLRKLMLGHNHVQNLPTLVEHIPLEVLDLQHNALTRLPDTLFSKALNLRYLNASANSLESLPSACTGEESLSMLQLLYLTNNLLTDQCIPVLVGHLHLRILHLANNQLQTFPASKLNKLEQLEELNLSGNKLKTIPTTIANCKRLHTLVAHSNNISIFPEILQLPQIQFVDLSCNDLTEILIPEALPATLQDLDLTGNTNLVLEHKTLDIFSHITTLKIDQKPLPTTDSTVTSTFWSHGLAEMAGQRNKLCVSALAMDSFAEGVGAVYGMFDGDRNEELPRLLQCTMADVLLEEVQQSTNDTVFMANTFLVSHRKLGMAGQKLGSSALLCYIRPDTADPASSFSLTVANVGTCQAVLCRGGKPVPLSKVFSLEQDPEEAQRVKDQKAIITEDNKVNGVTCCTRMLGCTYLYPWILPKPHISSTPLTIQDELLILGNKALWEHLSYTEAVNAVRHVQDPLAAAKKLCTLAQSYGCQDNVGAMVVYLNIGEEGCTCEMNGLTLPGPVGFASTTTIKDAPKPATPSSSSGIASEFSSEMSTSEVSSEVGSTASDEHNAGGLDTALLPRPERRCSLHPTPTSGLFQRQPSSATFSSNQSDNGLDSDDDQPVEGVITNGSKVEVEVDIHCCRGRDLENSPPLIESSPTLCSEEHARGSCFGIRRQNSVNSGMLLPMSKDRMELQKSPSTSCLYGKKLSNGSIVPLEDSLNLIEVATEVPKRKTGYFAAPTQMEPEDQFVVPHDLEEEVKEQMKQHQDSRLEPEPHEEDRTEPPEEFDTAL
The assay is described as follows: co-IP; Flag-tagged PHLPP2 Wt or ΔCTD co-transfected with TRIM22 Wt into HepG2 cells; IP with Flag antibody, Western blot. For orientation: A western blot detects proteins with antibodies after separation by electrophoresis.

For assay [3], the target named is T1, PHLPP2 (endogenous) (human (endogenous in HepG2)). Put plainly: co-IP; HepG2 cells transfected with Myc-tagged TRIM22 Wt or Muts (ΔRING, ΔBBox, ΔCC, ΔSPRY); IP (antibody not told) and Western blot.
Assay [4] shares this target. The assay is described as follows: condition: only after treatment with Lambda protein phosphatase (λ-PPase); co-IP; IP with anti-PHLPP2 in TRIM22-overexpressed HepG2 cells; after IP treated with λ-PPase; Western blot.
The target is the same in assay [5]. Put plainly: co-IP; HepG2 cells transfected with EV or TRIM22-Myc, 20 μM MG132 for 4 hrs; lysed in NET-2 buffer; IP with anti-Myc or anti-PHLPP2, Western blot; also done in IKKα- or IKKβ-depleted cells (siRNA): interaction reduced in IKKβ-depleted cells, not in IKKα-depleted cells.
For assay [6], the target named is T3, IKKα (endogenous) (human (endogenous in HepG2)) (UniProt O15111).
T3 sequence: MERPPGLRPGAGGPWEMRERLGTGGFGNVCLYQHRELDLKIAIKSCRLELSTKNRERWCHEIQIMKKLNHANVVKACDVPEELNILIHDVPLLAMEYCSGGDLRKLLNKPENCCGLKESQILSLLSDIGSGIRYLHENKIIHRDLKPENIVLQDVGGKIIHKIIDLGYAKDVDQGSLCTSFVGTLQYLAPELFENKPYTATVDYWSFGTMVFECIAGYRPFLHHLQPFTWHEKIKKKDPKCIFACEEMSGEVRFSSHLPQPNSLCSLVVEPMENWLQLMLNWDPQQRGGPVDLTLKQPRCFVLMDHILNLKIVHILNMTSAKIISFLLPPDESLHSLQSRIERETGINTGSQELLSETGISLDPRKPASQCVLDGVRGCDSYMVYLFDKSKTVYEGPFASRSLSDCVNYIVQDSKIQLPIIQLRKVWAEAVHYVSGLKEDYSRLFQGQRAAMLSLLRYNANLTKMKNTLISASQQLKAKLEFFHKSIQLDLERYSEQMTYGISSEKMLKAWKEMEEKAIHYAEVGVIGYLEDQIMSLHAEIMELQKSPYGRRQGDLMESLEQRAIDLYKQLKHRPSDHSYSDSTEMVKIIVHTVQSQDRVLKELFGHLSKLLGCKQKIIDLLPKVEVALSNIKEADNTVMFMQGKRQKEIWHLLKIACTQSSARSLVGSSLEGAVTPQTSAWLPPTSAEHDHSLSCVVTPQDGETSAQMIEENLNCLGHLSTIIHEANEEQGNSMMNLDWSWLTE
Put plainly: co-IP; IP with anti-IKKα or anti-IKKβ in TRIM22-overexpressed HepG2 cells; Western blot.

Assay [7] deals with T4, IKKβ (endogenous) (human (endogenous in HepG2)) (UniProt O14920).
T4 sequence: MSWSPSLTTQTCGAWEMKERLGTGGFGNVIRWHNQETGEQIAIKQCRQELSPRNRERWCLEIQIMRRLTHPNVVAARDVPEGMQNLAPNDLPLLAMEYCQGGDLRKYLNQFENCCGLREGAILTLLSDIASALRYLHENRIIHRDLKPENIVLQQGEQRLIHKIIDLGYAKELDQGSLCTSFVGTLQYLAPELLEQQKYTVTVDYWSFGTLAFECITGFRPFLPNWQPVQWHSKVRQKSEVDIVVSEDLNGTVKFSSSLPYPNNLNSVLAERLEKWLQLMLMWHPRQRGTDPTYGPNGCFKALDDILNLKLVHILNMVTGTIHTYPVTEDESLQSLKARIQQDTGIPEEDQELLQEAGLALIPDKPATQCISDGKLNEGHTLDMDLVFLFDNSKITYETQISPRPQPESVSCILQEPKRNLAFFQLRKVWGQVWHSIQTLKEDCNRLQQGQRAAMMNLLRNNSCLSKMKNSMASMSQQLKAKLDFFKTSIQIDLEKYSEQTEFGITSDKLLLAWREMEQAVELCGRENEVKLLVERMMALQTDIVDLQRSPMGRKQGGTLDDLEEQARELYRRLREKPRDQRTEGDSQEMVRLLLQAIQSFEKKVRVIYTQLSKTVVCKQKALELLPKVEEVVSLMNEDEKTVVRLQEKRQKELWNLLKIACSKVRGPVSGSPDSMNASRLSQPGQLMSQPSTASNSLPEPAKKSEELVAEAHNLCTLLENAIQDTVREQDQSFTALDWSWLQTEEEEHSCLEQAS
Described as above.

Assay [8] concerns the target TRIM22-Myc (full-length TRIM22, Myc-tagged) (UniProt Q8IYM9). Put plainly: co-IP; HepG2 cells transfected with EV or TRIM22-Myc, 20 μM MG132 for 4 hrs; lysed in NET-2 buffer; IP with anti-Myc or anti-PHLPP2, Western blot; also done in IKKα- or IKKβ-depleted cells (siRNA): interaction reduced in IKKβ-depleted cells, not in IKKα-depleted cells.

For the molecule “TRIM22 (in IR-induced senescent HepG2 cells) (from UniProt Q8IYM9 1-498)”, the binding entry in assay [1] is reported as “binds”.
As to “TRIM22-Myc (full-length TRIM22, Myc-tagged) (from UniProt Q8IYM9 1-498)”, the binding result in assay [2] is “binds”; in assay [3], “binds”; in assay [4] it was “no binding”; in assay [1], “binds”; in assay [5] it was “binds”.

B1: PHLPP2 (endogenous) (protein, UniProt Q6ZVD8 1-1323)
chain: MKRNGSRNCLNRRSRFGSRERDWLREDVKRGCVYLYGADTTTATTTTTTSSSSSSSSSSSDLHLVLCTVETPASEICAGEGRESLYLQLHGDLVRRLEPTERPLQIVYDYLSRLGFDDPVRIQEEATNPDLGCMIRFYGEKPCHMDRLDRILLSGIYNVRKGKTQLHKWAERLVVLCGTCLIVSSVKDCQTGKMHILPLVGGKIEEVKRRQYSLAFSSAGAQAQTYHVSFETLAEYQRWQRQASKVVSQRISTVDLSCYSLEEVPEHLFYSQDITYLNLRHNFMQLERPGGLDTLYKFSQLKGLNLSHNKLGLFPILLCEISTLTELNLSCNGFHDLPSQIGNLLNLQTLCLDGNFLTTLPEELGNLQQLSSLGISFNNFSQIPEVYEKLTMLDRVVMAGNCLEVLNLGVLNRMNHIKHVDLRMNHLKTMVIENLEGNKHITHVDLRDNRLTDLDLSSLCSLEQLHCGRNQLRELTLSGFSLRTLYASSNRLTAVNVYPVPSLLTFLDLSRNLLECVPDWACEAKKIEVLDVSYNLLTEVPVRILSSLSLRKLMLGHNHVQNLPTLVEHIPLEVLDLQHNALTRLPDTLFSKALNLRYLNASANSLESLPSACTGEESLSMLQLLYLTNNLLTDQCIPVLVGHLHLRILHLANNQLQTFPASKLNKLEQLEELNLSGNKLKTIPTTIANCKRLHTLVAHSNNISIFPEILQLPQIQFVDLSCNDLTEILIPEALPATLQDLDLTGNTNLVLEHKTLDIFSHITTLKIDQKPLPTTDSTVTSTFWSHGLAEMAGQRNKLCVSALAMDSFAEGVGAVYGMFDGDRNEELPRLLQCTMADVLLEEVQQSTNDTVFMANTFLVSHRKLGMAGQKLGSSALLCYIRPDTADPASSFSLTVANVGTCQAVLCRGGKPVPLSKVFSLEQDPEEAQRVKDQKAIITEDNKVNGVTCCTRMLGCTYLYPWILPKPHISSTPLTIQDELLILGNKALWEHLSYTEAVNAVRHVQDPLAAAKKLCTLAQSYGCQDNVGAMVVYLNIGEEGCTCEMNGLTLPGPVGFASTTTIKDAPKPATPSSSSGIASEFSSEMSTSEVSSEVGSTASDEHNAGGLDTALLPRPERRCSLHPTPTSGLFQRQPSSATFSSNQSDNGLDSDDDQPVEGVITNGSKVEVEVDIHCCRGRDLENSPPLIESSPTLCSEEHARGSCFGIRRQNSVNSGMLLPMSKDRMELQKSPSTSCLYGKKLSNGSIVPLEDSLNLIEVATEVPKRKTGYFAAPTQMEPEDQFVVPHDLEEEVKEQMKQHQDSRLEPEPHEEDRTEPPEEFDTAL
Consider B1, for which the binding entry in assay [6], in assay [7] and in assay [8] was “binds” throughout.
